# Results: PubChem BioAssay AID445 (National Center for Advancing Translational Sciences (NCATS), 2006)
# Some of the results follow. Further columns of the screen follow, without active or inactive calls. Compounds called inactive in the main read-out are mostly missing here. Words in brackets tell the shape of the fitted curve; partial curves, single points and poor fits give uncertain potencies.
# Experiment: IkB Signaling
# Conditions: ABC-DLBCL IkBa-CBG/CBR dual luciferase ratio (green luciferase fused to IkBa over red control in OCI-Ly3 lymphoma cells), 4 h
# How it was run: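 In this assay, an IκBα–CBG68 fusion accumulates when IKK-driven degradation is blocked; native CBR normalizes for cell number. OCI-Ly3 cells were treated 4 h with compound and doxycycline, then green and red light read after Chroma-Glo addition.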
# [1] = measured here: control luc red channel unless noted
# [2] = measured here: IkB-luc green channel
# [3] = measured here: control luc red channel
smiles,measurement,setting,value
CCc1ccccc1NCc1nnc2n1CCCCC2,AC50,[1],"0.00631 µM [falling, full curve]"
Cc1cc(C)nc(N(C#N)CC(=O)c2ccccc2)n1,AC50,[1],"25.1 µM [falling, single point]"
Clc1ccc(CCNc2nc3ccccc3c3nc(-c4ccccc4)nn23)cc1,AC50,[1],"20 µM [falling, partial curve]"
Cc1ccc(C(=O)N(Cc2ccco2)Cc2ccco2)cc1,AC50,[1],"39.8 µM [falling, single point]"
CCOc1ccc(NC(=O)Cn2cc(C(=O)c3cccs3)c3ccccc32)cc1,AC50,[1],"7.94 µM [falling, partial curve]"
COc1cccc(CCNC(=O)c2cnc3sc(N4CCCCCC4)nn3c2=O)c1,AC50,[1],"25.1 µM [falling, single point]"
Clc1ccc(OCCCc2nc(-c3cccnc3)no2)c(Cl)c1,AC50,[1],"39.8 µM [falling, single point]"
COc1ccc(S(=O)(=O)c2c(Nc3c(C)cccc3C)sc(C(=O)c3ccc4c(c3)OCO4)c2N)cc1,AC50,[2],"3.98 µM [rising, single point]"
same,AC50,[3],"2.51 µM [rising, full curve]"
Cc1cccc(Nc2nc(N)nc(CN3CCN(c4ccc(F)cc4)CC3)n2)c1,AC50,[1],"10 µM [falling, partial curve]"
O=C(CSc1nnc(CNc2ccc(F)cc2)n1Cc1ccco1)N1CCCC1,AC50,[1],"39.8 µM [falling, partial curve]"
CS(=O)(=O)c1ncc(Cl)c(C(=O)Nc2c(C(=O)Nc3ccccc3)oc3ccccc23)n1,AC50,[1],"5.01 µM [falling, full curve]"
Cc1cccc(Nc2ncc(NC(=O)c3cccc(F)c3)c(Nc3cccc(C)c3)n2)c1,AC50,[1],"20 µM [falling, partial curve, poor fit]"
NS(=O)(=O)c1ccc(CCNC(=O)c2ccc3nc(CCc4ccccc4)oc3c2)cc1,AC50,[1],"0.0631 µM [rising, full curve, poor fit]"
CCCc1nnc(NC(=O)C2CCCO2)s1 (stereo not given),AC50,[1],"39.8 µM [falling, single point]"
N#CC1=C(SCC(=O)c2cc3ccccc3oc2=O)NC(=O)C(C#N)C12CCCC2 (stereo not given),AC50,[1],"3.98 µM [falling, full curve]"
Cc1ccc(S(=O)(=O)c2cn(CC(=O)Nc3ccccc3C)c3cc4c(cc3c2=O)OCO4)cc1,AC50,[1],"39.8 µM [falling, single point]"
CC/C=C1/OC(=O)c2ccccc21,AC50,[1],"12.6 µM [rising, full curve, poor fit]"
Cc1ccc(Cl)cc1NC(=O)C1CCCN(S(=O)(=O)c2cccc3cccnc23)C1 (stereo not given),AC50,[1],"31.6 µM [falling, single point]"
Cc1ccccc1NC(=O)c1c(NC(=O)c2ccco2)sc2c1CCC(C(C)(C)C)C2 (stereo not given),AC50,[1],"12.6 µM [falling, partial curve, poor fit]"
COc1ccc(N2C(=O)CS(=O)(=O)C23C(=O)N(Cc2ccc(F)cc2)c2ccc(C)cc23)cc1 (stereo not given),AC50,[1],"2.51 µM [falling, partial curve]"
COc1ccccc1CNC(=O)CSc1nc2nc(C)c(Cc3ccccc3Cl)c(C)n2n1,AC50,[1],"12.6 µM [falling, partial curve]"
COc1ccc(CCNC(=O)c2cccc(-n3cnc4cccnc43)c2C)cc1OC,AC50,[1],"39.8 µM [falling, single point]"
Cc1noc(C)c1S(=O)(=O)N1CCCC(C(=O)Nc2ccc(Cl)cn2)C1 (stereo not given),AC50,[1],"15.8 µM [falling, partial curve]"
COc1cc(C(Nc2ccccn2)c2ccc3ccc(C)nc3c2O)cc(OC)c1O (stereo not given),AC50,[1],"7.94 µM [falling, partial curve]"
CCOC(=O)c1c(S(=O)(=O)N2CCCC(C(=O)Nc3cccc(C#N)c3)C2)c(C)n(C)c1C (stereo not given),AC50,[1],"5.01 µM [rising, partial curve]"
COC(=O)c1ccccc1NC(=O)c1ccc(F)cc1,AC50,[1],"39.8 µM [falling, single point]"
Cc1ccccc1CNC(=O)c1cccc(NC(=O)N2CCSc3ncccc32)c1,AC50,[1],"25.1 µM [falling, partial curve]"
Cc1ccc(-n2nc(C)c3c2OC(N)=C(C#N)C3c2ccoc2)cc1 (stereo not given),AC50,[1],"12.6 µM [falling, partial curve]"
Cc1cnc(NC(=O)CN2CCN(c3ccccn3)CC2)s1,AC50,[1],"7.94 µM [falling, partial curve]"
COc1cccc(NS(=O)(=O)c2ccc3c(c2)[C@H]2C=CC[C@H]2[C@@H](c2ccccc2Cl)N3)c1,AC50,[1],"7.94 µM [falling, full curve]"
Cc1cccn2c(Nc3ccccc3)c(-c3cccs3)nc12,AC50,[1],"39.8 µM [falling, single point]"
Cc1[nH]c2ccccc2c1C(c1ccccc1)c1ccc(Cl)s1 (stereo not given),AC50,[1],"20 µM [falling, partial curve]"
COc1cccc(CNC(=O)Cc2ccc(NC(=O)N3CCSc4ncccc43)cc2)c1OC,AC50,[1],"0.0251 µM [falling, full curve, poor fit]"
Cc1cccc(N2CCN(C(=O)CN3C(=O)COc4ccc(S(=O)(=O)N5CCC(C)CC5)cc43)CC2C)c1 (stereo not given),AC50,[1],"12.6 µM [falling, partial curve]"
CCOC(=O)N1CCN(Cc2nc3cc([N+](=O)[O-])ccc3n2C(C)C)CC1,AC50,[1],"39.8 µM [falling, single point]"
CC(C)c1cc(Nc2cccc(O)c2)cc(C(C)C)c1O,AC50,[1],"15.8 µM [falling, partial curve]"
O=C(Cc1coc2cc3c(cc12)CCC3)OCc1cc(=O)n2c(n1)sc1ccccc12,AC50,[1],"10 µM [falling, partial curve]"
COc1ccc(C(CNC(=O)c2ccc(F)cc2)N2CCCC2)cc1 (stereo not given),AC50,[1],"0.316 µM [rising, full curve]"
CC(=O)N1CCc2c(sc3c2c(=O)n(Cc2ccccc2)c(=O)n3Cc2ccccc2F)C1,AC50,[1],"39.8 µM [falling, single point]"
O=C(Cc1cccs1)Nc1c(C(=O)Nc2ccc(F)cc2)oc2ccccc12,AC50,[1],"5.01 µM [falling, partial curve]"
Cc1ccc(OCc2nnc(SCc3nc4ccccc4[nH]3)n2Cc2ccco2)cc1,AC50,[1],"6.31 µM [falling, partial curve]"
COc1ccc(CCC(=O)NCc2ccc3c(c2)CCN3C(=O)c2ccccc2)cc1,AC50,[1],"15.8 µM [falling, single point]"
Cc1cnc(NC(=O)CSc2nc3ccccc3c(=O)[nH]2)s1,AC50,[1],"10 µM [falling, partial curve]"
CC(C)(C)OC(=O)N1CCc2nc(N3CCN(c4ncccn4)CC3)ncc2C1,AC50,[1],"12.6 µM [falling, single point]"
CCS(=O)(=O)N1CCc2cc(C(=O)N3CCN(c4ccccc4OC)CC3)ccc21,AC50,[1],"10 µM [falling, partial curve]"
COC(=O)c1cccc(S(=O)(=O)N2CCN(c3nc4ccccc4s3)CC2)c1,AC50,[1],"20 µM [rising, partial curve]"
COC(=O)CSc1nnc(-c2ccc(NS(=O)(=O)c3ccccc3)cc2)o1,AC50,[1],"25.1 µM [falling, partial curve]"
COc1ccc(-c2n[nH]c(C)c2-c2cnn(-c3ccccc3)c2)c(O)c1,AC50,[1],"15.8 µM [falling, partial curve]"
Cc1oc2cc3oc(=O)c(CC(=O)NCc4ccccc4)c(C)c3cc2c1C,AC50,[1],"15.8 µM [falling, single point]"
O=C1c2ccccc2C(=O)C1c1ccc2ccccc2n1,AC50,[1],"2.51 µM [falling, full curve]"
COc1cccc(NC(=O)c2oc3ccccc3c2NC(=O)c2ccc(F)c(F)c2)c1,AC50,[1],"39.8 µM [falling, single point]"
O=C(CSc1nc2nccnc2c(=O)n1CCc1c[nH]c2ccccc12)Nc1ccccc1,AC50,[1],"39.8 µM [falling, single point]"
O=C(NC1CC(=O)N(c2ccccc2)C1)C(c1ccccc1)c1ccccc1 (stereo not given),AC50,[1],"31.6 µM [falling, single point]"
Cc1c(CCNC(=O)c2ccc(Br)o2)sc2nc(-c3ccc(Cl)cc3)nn12,AC50,[2],"39.8 µM [falling, single point]"
same,AC50,[3],"20 µM [falling, partial curve]"
Cc1ccc(C(=O)N2CCCCC2)cc1NC(=O)c1nsc2ccccc12,AC50,[1],"39.8 µM [falling, partial curve]"
CCN(CC)CC(=O)c1ccc(-c2ccccc2)cc1,AC50,[1],"12.6 µM [falling, partial curve]"
O=C(Nc1ccccc1C(F)(F)F)C1CCN(S(=O)(=O)Cc2ccccc2)CC1,AC50,[1],"25.1 µM [falling, partial curve]"
CCOC(=O)Cc1csc(NC(=O)c2ccc3c(c2)OCO3)n1,AC50,[1],"7.94 µM [falling, partial curve]"
O=C(Cn1cc(C(=O)C(F)(F)F)c2ccccc21)N1CCCCCC1,AC50,[1],"12.6 µM [falling, partial curve]"
Cn1c(N)c(C(=O)COC(=O)CCCc2c[nH]c3ccccc23)c(=O)n(C)c1=O,AC50,[1],"15.8 µM [falling, partial curve]"
Cc1c(C(=O)OC2CCC(C)CC2)[nH]c2c1C(=O)CCC2 (stereo not given),AC50,[1],"25.1 µM [falling, partial curve]"
O=C(COc1ccc2ccccc2c1)NC1CC(=O)N(c2ccc(F)cc2)C1 (stereo not given),AC50,[1],"3.16 µM [rising, full curve, poor fit]"
CC1CCCCN1CCCNC(=O)c1cc(Sc2cccc(Cl)c2)nc2ccccc12 (stereo not given),AC50,[1],"39.8 µM [falling, single point]"

# An excerpt of these results, tab-delimited:
smiles	measurement	setting	value
CCOc1ccc(NC(=O)Cn2cc(C(=O)c3cccs3)c3ccccc32)cc1	AC50	[1]	7.94 µM [falling, partial curve]
COc1cccc(CCNC(=O)c2cnc3sc(N4CCCCCC4)nn3c2=O)c1	AC50	[1]	25.1 µM [falling, single point]
COc1ccc(S(=O)(=O)c2c(Nc3c(C)cccc3C)sc(C(=O)c3ccc4c(c3)OCO4)c2N)cc1	AC50	[2]	3.98 µM [rising, single point]
O=C(CSc1nnc(CNc2ccc(F)cc2)n1Cc1ccco1)N1CCCC1	AC50	[1]	39.8 µM [falling, partial curve]
Cc1cccc(Nc2ncc(NC(=O)c3cccc(F)c3)c(Nc3cccc(C)c3)n2)c1	AC50	[1]	20 µM [falling, partial curve, poor fit]
Cc1ccccc1NC(=O)c1c(NC(=O)c2ccco2)sc2c1CCC(C(C)(C)C)C2 (stereo not given)	AC50	[1]	12.6 µM [falling, partial curve, poor fit]
Cc1noc(C)c1S(=O)(=O)N1CCCC(C(=O)Nc2ccc(Cl)cn2)C1 (stereo not given)	AC50	[1]	15.8 µM [falling, partial curve]
Cc1ccc(-n2nc(C)c3c2OC(N)=C(C#N)C3c2ccoc2)cc1 (stereo not given)	AC50	[1]	12.6 µM [falling, partial curve]
Cc1[nH]c2ccccc2c1C(c1ccccc1)c1ccc(Cl)s1 (stereo not given)	AC50	[1]	20 µM [falling, partial curve]
CC(=O)N1CCc2c(sc3c2c(=O)n(Cc2ccccc2)c(=O)n3Cc2ccccc2F)C1	AC50	[1]	39.8 µM [falling, single point]
COc1ccc(CCC(=O)NCc2ccc3c(c2)CCN3C(=O)c2ccccc2)cc1	AC50	[1]	15.8 µM [falling, single point]
Cc1cnc(NC(=O)CSc2nc3ccccc3c(=O)[nH]2)s1	AC50	[1]	10 µM [falling, partial curve]
CC(C)(C)OC(=O)N1CCc2nc(N3CCN(c4ncccn4)CC3)ncc2C1	AC50	[1]	12.6 µM [falling, single point]
COC(=O)c1cccc(S(=O)(=O)N2CCN(c3nc4ccccc4s3)CC2)c1	AC50	[1]	20 µM [rising, partial curve]
Cc1oc2cc3oc(=O)c(CC(=O)NCc4ccccc4)c(C)c3cc2c1C	AC50	[1]	15.8 µM [falling, single point]
O=C1c2ccccc2C(=O)C1c1ccc2ccccc2n1	AC50	[1]	2.51 µM [falling, full curve]
Cc1c(CCNC(=O)c2ccc(Br)o2)sc2nc(-c3ccc(Cl)cc3)nn12	AC50	[2]	39.8 µM [falling, single point]
same	AC50	[3]	20 µM [falling, partial curve]
CCOC(=O)Cc1csc(NC(=O)c2ccc3c(c2)OCO3)n1	AC50	[1]	7.94 µM [falling, partial curve]
